# Laboratory results as given in the supplement of paper PMC9254222.
# In all, about 1,100 compounds were measured (“Renilla luciferase signal (cell health) relative to plate median”: median about 0.97, highest 2% from about 1.6 on). This is a selection; strong and weak results do not stand in their true shares.
# Tested on: HEK293T (UBE3A T485A transfected, BAR Wnt reporter)
# Assay: Renilla luciferase signal (cell health) relative to plate median (fold (linear ratio)); higher = higher Renilla signal
# Details: 24 h
# How it was run: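 HEK293T cells carrying a transfected BAR firefly luciferase Wnt reporter, TK-Renilla and an expression plasmid were exposed to chemicals at 0.01–100 uM for 24 h, with dosing four hours after transfection. Readout used Dual-Glo luciferase. The firefly/Renilla ratio defined Wnt activity and raw Renilla defined cell health, each median-centred per plate. Figures are means of four biological replicates.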
Structure (SMILES),Renilla luciferase signal (concentration: 0.1 uM),Renilla luciferase signal (concentration: 1 uM),Renilla luciferase signal (concentration: 10 uM),Renilla luciferase signal (concentration: 100 uM),Renilla luciferase signal (concentration: 0.01 uM),Renilla luciferase signal (concentration: .1 uM)
Nc1nc(N)c2nc(CNc3ccc(C(=O)N[C@@H](CCC(=O)O)C(=O)O)cc3)cnc2n1 [4-Aminofolic acid],1.08,1.07,0.151,0.171,,
O=C1O[C@H]([C@@H](O)CO)C([O-])=C1O.[Na+] [Sodium L-ascorbate],1.02,1.09,1.24,1.45,,
CCOC(=O)COc1ccc2c(c1)CC(NCC(O)c1cccc(Cl)c1)CC2.Cl (centres undefined),0.843,0.832,0.848,0.984,,
"CC(O)CN(CCN(CC(C)O)CC(C)O)CC(C)O (centres undefined) [N,N,N',N'-Tetrakis(2-Hydroxypropyl)ethylenediamine]",1.07,1.01,1.16,1.46,,
"Oc1ccc(C(c2ccc(O)cc2)C(Cl)(Cl)Cl)cc1 [2,2-Bis(4-hydroxyphenyl)-1,1,1-trichloroethane]",1.15,1.03,0.88,0.0319,1.19,
Nc1nc(=O)c2nc(CNc3ccc(C(=O)N[C@@H](CCC(=O)O)C(=O)O)cc3)cnc2[nH]1 [Folic acid],0.935,0.934,1.07,1.19,,
CC(C)(O)c1ccc(CNC(=O)c2cccnc2Oc2ccc3nonc3c2)cc1,0.961,0.975,0.999,0.124,,
[Cl-].[K+],,,,1.88,,
Cc1ccc(C(C)C)cc1 [p-Cymene],1.03,0.949,1.11,1.51,,
"Cc1ccc(N(C)C)cc1 [N,N,4-Trimethylaniline]",0.776,0.869,0.9,0.941,,
CCC(C)=NO [2-Butanone oxime],1.07,1.14,1.17,1.51,,
CCCOC(=O)c1cc(O)c(O)c(O)c1 [Propyl gallate],0.872,0.862,0.785,0.961,,
CCC1(O)C(=O)OCc2c1cc1n(c2=O)Cc2cc3c(CN(C)C)c(O)ccc3nc2-1 (centres undefined) [Topotecan],0.262,0.107,0.199,0.157,0.831,
O=[N+]([O-])c1ccc([O-])cc1.[Na+] [Sodium 4-nitrophenolate],0.98,0.86,0.924,0.669,,
CCCCCCCCCCCCCCCO [1-Pentadecanol],0.983,1.26,1.07,1.38,,
Cc1cc(F)ccc1-c1cc(N2CC[C@@H](O)[C@H]2CO)ncc1N(C)C(=O)C(C)(C)c1cc(C(F)(F)F)cc(C(F)(F)F)c1,1.21,1.17,1.16,0.172,,
"CCCCCCCCN(C)C [N,N-Dimethyloctylamine]",0.788,0.836,1.01,1.05,,
CC(C(C)N1CC(=O)NC(=O)C1)N1CC(=O)NC(=O)C1 (centres undefined),0.674,0.785,0.383,0.396,0.735,
"OC(CCl)CCl [1,3-Dichloro-2-propanol]",0.799,0.886,1.05,1.03,,
CC(=O)OC1CC(C)OC(C)O1 (centres undefined) [Dimethoxane],1.23,1.1,1.26,1.63,,

Structure (SMILES),Renilla luciferase signal (concentration: 0.1 uM),Renilla luciferase signal (concentration: 1 uM),Renilla luciferase signal (concentration: 10 uM),Renilla luciferase signal (concentration: 100 uM),Renilla luciferase signal (concentration: 0.01 uM),Renilla luciferase signal (concentration: .1 uM)
CCCCOCCO [2-Butoxyethanol],0.833,0.844,0.847,0.897,,
Cc1[nH]nc2c1N=C(c1ccccc1Cl)c1cc([N+](=O)[O-])ccc1N2,0.56,0.0635,0.151,0.117,,
CCc1nc(N)nc(N)c1-c1ccc(Cl)cc1 [Pyrimethamine],1.11,1.06,1.07,0.0813,,
CC(C)C(=O)Nc1ccc([N+](=O)[O-])c(C(F)(F)F)c1 [Flutamide],0.736,0.814,0.649,0.307,,
CC(=O)CC(c1ccccc1)c1c(O)c2ccccc2oc1=O (centres undefined) [Warfarin],1.16,0.923,0.762,1.24,,
O=C1CCCCC1 [Cyclohexanone],0.948,0.937,0.997,1.09,,
O=c1nc(-c2ccc(C(F)(F)F)cc2)[nH]c2c1CSCC2,1.01,0.981,0.974,1.06,0.904,
Cl.O=C(c1ccc(OCCN2CCCCC2)cc1)c1c(-c2ccc(O)cc2)sc2cc(O)ccc12 [Raloxifene hydrochloride],0.885,0.889,0.863,0.022,,
O=C(O)c1cccc(Oc2ccccc2)c1 [3-Phenoxybenzoic acid],0.986,1.02,1.07,1.07,,
O=C(O)C1(C(=O)Nc2ccc(Cl)cc2Cl)CC1 [Cyclanilide],0.825,0.968,0.934,0.617,1.02,
OCC1OC(n2cnc3c(NC4CCCC4)ncnc32)C(O)C1O (centres undefined) [N6-Cyclopentyl adenosine],1.03,0.94,0.856,1,1.18,
O=C(Oc1ccccc1)c1cccc(C(=O)Oc2ccccc2)c1 [Diphenyl isophthalate],0.764,0.859,0.84,1.1,,
Cc1occc(=O)c1O [Maltol],0.895,0.982,0.967,1.11,,
O=C([O-])Cc1ccccc1Nc1c(Cl)cccc1Cl.[Na+] [Diclofenac sodium],0.856,0.96,1.04,0.319,,
CC(C)CCCCCCCOC(=O)CCCCC(=O)OCCCCCCCC(C)C [Diisodecyl hexanedioate],1.04,1.15,1.06,1.45,,
NCCO [Ethanolamine],,0.822,0.939,1.34,,0.808
CC(C)CCCCCCOC(=O)c1ccc(C(=O)OCCCCCCC(C)C)c(C(=O)OCCCCCCC(C)C)c1 [Triisononyl trimellitate],1.14,1.15,1.21,1.29,,
C[C@@H](Oc1ccc(CNC(=O)c2cccnc2Oc2ccc3c(c2)OCO3)c(F)c1)C(=O)O,0.965,0.848,0.936,0.918,,
c1ccc2cc3ccccc3cc2c1 [Anthracene],1.34,1.26,0.952,0.992,,
COC(=O)c1ccc(I)cc1S(=O)(=O)[N-]C(=O)Nc1nc(C)nc(OC)n1.[Na+] [Iodosulfuron-methyl-sodium],1.38,1.19,1.05,1.46,1.16,

# Entries of single compounds, quoted from the list.
# `c1ccc2cc3ccccc3cc2c1` [Anthracene] in the list: Renilla luciferase signal (concentration: 0.1 uM): 1.34; Renilla luciferase signal (concentration: 1 uM): 1.26; Renilla luciferase signal (concentration: 10 uM): 0.952; Renilla luciferase signal (concentration: 100 uM): 0.992
# `CCc1nc(N)nc(N)c1-c1ccc(Cl)cc1` [Pyrimethamine] in the list: Renilla luciferase signal (concentration: 0.1 uM): 1.11; Renilla luciferase signal (concentration: 1 uM): 1.06; Renilla luciferase signal (concentration: 10 uM): 1.07; Renilla luciferase signal (concentration: 100 uM): 0.0813
# `CCCCOCCO` [2-Butoxyethanol] in the list: Renilla luciferase signal (concentration: 0.1 uM): 0.833; Renilla luciferase signal (concentration: 1 uM): 0.844; Renilla luciferase signal (concentration: 10 uM): 0.847; Renilla luciferase signal (concentration: 100 uM): 0.897
